Test results published in patent US11065203B2, “Liposomal compositions and uses of same” (Technion Research & Development Foundation Limited, priority 2009, dated 2021).

B1: Q00341 (protein, UniProt Q00341 1-1268, looked up)
chain: MSSVAVLTQESFAEHRSGLVPQQIKVATLNSEEESDPPTYKDAFPPLPEKAACLESAQEPAGAWGNKIRPIKASVITQVFHVPLEERKYKDMNQFGEGEQAKICLEIMQRTGAHLELSLAKDQGLSIMVSGKLDAVMKARKDIVARLQTQASATVAIPKEHHRFVIGKNGEKLQDLELKTATKIQIPRPDDPSNQIKITGTKEGIEKARHEVLLISAEQDKRAVERLEVEKAFHPFIAGPYNRLVGEIMQETGTRINIPPPSVNRTEIVFTGEKEQLAQAVARIKKIYEEKKKKTTTIAVEVKKSQHKYVIGPKGNSLQEILERTGVSVEIPPSDSISETVILRGEPEKLGQALTEVYAKANSFTVSSVAAPSWLHRFIIGKKGQNLAKITQQMPKVHIEFTEGEDKITLEGPTEDVNVAQEQIEGMVKDLINRMDYVEINIDHKFHRHLIGKSGANINRIKDQYKVSVRIPPDSEKSNLIRIEGDPQGVQQAKRELLELASRMENERTKDLIIEQRFHRTIIGQKGERIREIRDKFPEVIINFPDPAQKSDIVQLRGPKNEVEKCTKYMQKMVADLVENSYSISVPIFKQFHKNIIGKGGANIKKIREESNTKIDLPAENSNSETIIITGKRANCEAARSRILSIQKDLANIAEVEVSIPAKLHNSLIGTKGRLIRSIMEECGGVHIHFPVEGSGSDTVVIRGPSSDVEKAKKQLLHLAEEKQTKSFTVDIRAKPEYHKFLIGKGGGKIRKVRDSTGARVIFPAAEDKDQDLITIIGKEDAVREAQKELEALIQNLDNVVEDSMLVDPKHHRHFVIRRGQVLREIAEEYGGVMVSFPRSGTQSDKVTLKGAKDCVEAAKKRIQEIIEDLEAQVTLECAIPQKFHRSVMGPKGSRIQQITRDFSVQIKFPDREENAVHSTEPVVQENGDEAGEGREAKDCDPGSPRRCDIIIISGRKEKCEAAKEALEALVPVTIEVEVPFDLHRYVIGQKGSGIRKMMDEFEVNIHVPAPELQSDIIAITGLAANLDRAKAGLLERVKELQAEQEDRALRSFKLSVTVDPKYHPKIIGRKGAVITQIRLEHDVNIQFPDKDDGNQPQDQITITGYEKNTEAARDAILRIVGELEQMVSEDVPLDHRVHARIIGARGKAIRKIMDEFKVDIRFPQSGAPDPNCVTVTGLPENVEEAIDHILNLEEEYLADVVDSEALQVYMKPPAHEEAKAPSRGFVVRDAPWTASSSEKAPDMSSSEEFPSFGAQVAPKTLPWGPKR
modifications: full-length
B2: Q12906 (protein, UniProt Q12906 1-894, looked up)
chain: MRPMRIFVNDDRHVMAKHSSVYPTQEELEAVQNMVSHTERALKAVSDWIDEQEKGSSEQAESDNMDVPPEDDSKEGAGEQKTEHMTRTLRGVMRVGLVAKGLLLKGDLDLELVLLCKEKPTTALLDKVADNLAIQLAAVTEDKYEILQSVDDAAIVIKNTKEPPLSLTIHLTSPVVREEMEKVLAGETLSVNDPPDVLDRQKCLAALASLRHAKWFQARANGLKSCVIVIRVLRDLCTRVPTWGPLRGWPLELLCEKSIGTANRPMGAGEALRRVLECLASGIVMPDGSGIYDPCEKEATDAIGHLDRQQREDITQSAQHALRLAAFGQLHKVLGMDPLPSKMPKKPKNENPVDYTVQIPPSTTYAITPMKRPMEEDGEEKSPSKKKKKIQKKEEKAEPPQAMNALMRLNQLKPGLQYKLVSQTGPVHAPIFTMSVEVDGNSFEASGPSKKTAKLHVAVKVLQDMGLPTGAEGRDSSKGEDSAEETEAKPAVVAPAPVVEAVSTPSAAFPSDATAEQGPILTKHGKNPVMELNEKRRGLKYELISETGGSHDKRFVMEVEVDGQKFQGAGSNKKVAKAYAALAALEKLFPDTPLALDANKKKRAPVPVRGGPKFAAKPHNPGFGMGGPMHNEVPPPPNLRGRGRGGSIRGRGRGRGFGGANHGGYMNAGAGYGSYGYGGNSATAGYSQFYSNGGHSGNASGGGGGGGGGSSGYGSYYQGDNYNSPVPPKHAGKKQPHGGQQKPSYGSGYQSHQGQQQSYNQSPYSNYGPPQGKQKGYNHGQGSYSYSNSYNSPGGGGGSDYNYESKFNYSGSGGRSGGNSYGSGGASYNPGSHGGYGGGSGGGSSYQGKQGGYSQSNYNSPGSGQNYSGPPSSYQSSQGGYGRNADHSMNYQYR
modifications: full-length
B3: Q9NQC3 (protein, UniProt Q9NQC3 1-1192, looked up)
chain: MEDLDQSPLVSSSDSPPRPQPAFKYQFVREPEDEEEEEEEEEEDEDEDLEELEVLERKPAAGLSAAPVPTAPAAGAPLMDFGNDFVPPAPRGPLPAAPPVAPERQPSWDPSPVSSTVPAPSPLSAAAVSPSKLPEDDEPPARPPPPPPASVSPQAEPVWTPPAPAPAAPPSTPAAPKRRGSSGSVDETLFALPAASEPVIRSSAENMDLKEQPGNTISAGQEDFPSVLLETAASLPSLSPLSAASFKEHEYLGNLSTVLPTEGTLQENVSEASKEVSEKAKTLLIDRDLTEFSELEYSEMGSSFSVSPKAESAVIVANPREEIIVKNKDEEEKLVSNNILHNQQELPTALTKLVKEDEVVSSEKAKDSFNEKRVAVEAPMREEYADFKPFERVWEVKDSKEDSDMLAAGGKIESNLESKVDKKCFADSLEQTNHEKDSESSNDDTSFPSTPEGIKDRSGAYITCAPFNPAATESIATNIFPLLGDPTSENKTDEKKIEEKKAQIVTEKNTSTKTSNPFLVAAQDSETDYVTTDNLTKVTEEVVANMPEGLTPDLVQEACESELNEVTGTKIAYETKMDLVQTSEVMQESLYPAAQLCPSFEESEATPSPVLPDIVMEAPLNSAVPSAGASVIQPSSSPLEASSVNYESIKHEPENPPPYEEAMSVSLKKVSGIKEEIKEPENINAALQETEAPYISIACDLIKETKLSAEPAPDFSDYSEMAKVEQPVPDHSELVEDSSPDSEPVDLFSDDSIPDVPQKQDETVMLVKESLTETSFESMIEYENKEKLSALPPEGGKPYLESFKLSLDNTKDTLLPDEVSTLSKKEKIPLQMEELSTAVYSNDDLFISKEAQIRETETFSDSSPIEIIDEFPTLISSKTDSFSKLAREYTDLEVSHKSEIANAPDGAGSLPCTELPHDLSLKNIQPKVEEKISFSDDFSKNGSATSKVLLLPPDVSALATQAEIESIVKPKVLVKEAEKKLPSDTEKEDRSPSAIFSAELSKTSVVDLLYWRDIKKTGVVFGASLFLLLSLTVFSIVSVTAYIALALLSVTISFRIYKGVIQAIQKSDEGHPFRAYLESEVAISEELVQKYSNSALGHVNCTIKELRRLFLVDDLVDSLKFAVLMWVFTYVGALFNGLTLLILALISLFSVPVIYERHQAQIDHYLGLANKNVKDAMAKIQAKIPGLKRKAE
modifications: full-length
B4: Q9NX63 (protein, UniProt Q9NX63 1-227, looked up)
chain: MGGTTSTRRVTFEADENENITVVKGIRLSENVIDRMKESSPSGSKSQRYSGAYGASVSDEELKRRVAEELALEQAKKESEDQKRLKQAKELDRERAAANEQLTRAILRERICSEEERAKAKHLARQLEEKDRVLKKQDAFYKEQLARLEERSSEFYRVTTEQYQKAAEEVEAKFKRYESHPVCADLQAKILQCYRENTHQTLKCSALATQYMHCVNHAKQSMLEKGG
modifications: full-length
B5: P0C7P4 (protein, UniProt P0C7P4 1-283, looked up)
chain: MQQIYTVKEIRSVAARSGPFAPVLSATSRGVAGALRPLVQATVPATPEQPVLDLKRPFLSRESLSGQAVRRPLVASVGLNVPASVCYSHTDIKVPDFSEYRRLEVLDSTKSSRESTEARKGFSYLVTGVTTVGVAYAAKNAVTQFVSSMSASADVLALAKIEIKLSDIPEGKNMAFKWRGKPLFVRHRTQKEIKQEAAVELSQLRDPQHDLDRVKKPEWVILIGVCTHLGCVPIANAGDFGGYYCPCHGSHYDASGRIRLGPATLNLEVPTYEFTSDDMVIVG
modifications: full-length

Test: Proteomics analysis (trypsin digest, LC-MS/MS) of hMSC ghosts and derived CDLs, conditioned or unconditioned by PC3 medium
Set-up: species or system human
Conditions: LC-MS/MS peak area per protein; for Ratio of expression Cond. CDLs/Cond. Ghosts: CDLs derived from conditioned hMSCs versus conditioned ghosts; for Ratio of expression Cond Ghosts/Ghosts: hMSC ghosts conditioned by PC3 medium versus unconditioned ghosts

| Molecule | Ratio of expression Cond. CDLs/Cond. Ghosts | Ratio of expression Cond Ghosts/Ghosts |
| --- | --- | --- |
| B1 | 11% | 100% |
| B2 | 10% | 100% |
| B3 | 10% | 100% |
| B4 | 10% | 100% |
| B5 | 11% | 100% |
